# Data: the supplement of paper PMC8728848
# The list shows a part of the results.
# B1: SynCAM (Mus musculus) (protein)
# chain: MASAVLPSGSQCAAAAAVAAAAAPPGLRLRLLLLLLSAAALIPTGDGQNLFTKDVTVIEGEVATISCQVNKSDDSVIQLLNPNRQTIYFRDFRPLKDSRFQLLNFSSSELKVSLTNVSISDEGRYFCQLYTDPPQESYTTITVLVPPRNLMIDIQKDTAVEGEEIEVNCTAMASKPATTIRWFKGNKELKGKSEVEEWSDMYTVTSQLMLKVHKEDDGVPVICQVEHPAVTGNLQTQRYLEVQYKPQVHIQMTYPLQGLTREGDAFELTCEAIGKPQPVMVTWVRVDDEMPQHAVLSGPNLFINNLNKTDNGTYRCEASNIVGKAHSDYMLYVYDPPTTIPPP
# Tests used:
# Assay in all cases: glycan array binding signal (z-score within array); higher = stronger binding
# Conditions in all cases: glycan notation: IUPAC condensed, linker removed
# [1] = molecular target: Neu5Ac(a2-6)Gal(b1-4)GlcNAc(b1-2)Man(a1-3)[Neu5Ac(a2-3)Gal(b1-4)GlcNAc(b1-2)Man(a1-6)]Man(b1-4)GlcNAc(b1-4)GlcNAc
# Summary of the method: (§1)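 The binding signal is a Z-score computed within each array. Data were drawn from 3228 arrays in the Consortium for Functional Glycomics database, restricted to those with a known protein sequence. Scores were averaged over arrays of the same protein sequence at different concentrations or buffers, and over linkers, and negative values can be taken as non-binding.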
# [2] = molecular target: Neu5Ac(a2-6)Gal(b1-4)GlcNAc(b1-2)Man(a1-3)[Neu5Ac(a2-6)Gal(b1-4)GlcNAc(b1-2)Man(a1-6)]Man(b1-4)GlcNAc(b1-4)GlcNAc
# Summary of the method: as §1
# [3] = molecular target: Neu5Ac(a2-6)Gal(b1-4)GlcNAc(b1-2)Man(a1-3)[Neu5Ac(a2-6)Gal(b1-4)GlcNAc(b1-2)Man(a1-6)]Man(b1-4)GlcNAc(b1-4)[Fuc(a1-6)]GlcNAc
# Summary of the method: as §1
# [4] = molecular target: Neu5Ac(a2-6)Gal(b1-4)GlcNAc(b1-2)Man(a1-6)Man(b1-4)GlcNAc(b1-4)GlcNAc
# Summary of the method: as §1
# [5] = molecular target: Neu5Ac(a2-6)Gal(b1-4)GlcNAc(b1-2)Man(a1-6)[Gal(b1-4)GlcNAc(b1-2)Man(a1-3)]Man(b1-4)GlcNAc(b1-4)GlcNAc
# Summary of the method: as §1
# [6] = molecular target: Neu5Ac(a2-6)Gal(b1-4)GlcNAc(b1-2)Man(a1-6)[GlcNAc(b1-2)Man(a1-3)]Man(b1-4)GlcNAc(b1-4)GlcNAc
# Summary of the method: as §1
# [7] = molecular target: Neu5Ac(a2-6)Gal(b1-4)GlcNAc(b1-2)Man(a1-6)[Man(a1-3)]Man(b1-4)GlcNAc(b1-4)GlcNAc
# Summary of the method: as §1
# [8] = molecular target: Neu5Ac(a2-6)Gal(b1-4)GlcNAc(b1-2)[Neu5Ac(a2-6)Gal(b1-4)GlcNAc(b1-4)]Man(a1-3)[GlcNAc(b1-4)][Neu5Ac(a2-6)Gal(b1-4)GlcNAc(b1-2)[Neu5Ac(a2-6)Gal(b1-4)GlcNAc(b1-6)]Man(a1-6)]Man(b1-4)GlcNAc(b1-4)GlcNAc
# Summary of the method: as §1
# [9] = molecular target: Neu5Ac(a2-6)Gal(b1-4)GlcNAc(b1-2)[Neu5Ac(a2-6)Gal(b1-4)GlcNAc(b1-4)]Man(a1-3)[GlcNAc(b1-4)][Neu5Ac(a2-6)Gal(b1-4)GlcNAc(b1-4)Man(a1-6)]Man(b1-4)GlcNAc(b1-4)GlcNAc
# Summary of the method: as §1
# [10] = molecular target: Neu5Ac(a2-6)Gal(b1-4)GlcNAc(b1-2)[Neu5Ac(a2-6)Gal(b1-4)GlcNAc(b1-6)]Man(a1-6)[Neu5Ac(a2-6)Gal(b1-4)GlcNAc(b1-2)Man(a1-3)][GlcNAc(b1-4)]Man(b1-4)GlcNAc(b1-4)GlcNAc
# Summary of the method: as §1
# [11] = molecular target: Neu5Ac(a2-6)Gal(b1-4)GlcNAc(b1-3)Gal(b1-3)GlcNAc
# Summary of the method: as §1
# [12] = molecular target: Neu5Ac(a2-6)Gal(b1-4)GlcNAc(b1-3)Gal(b1-4)GlcNAc
# Summary of the method: as §1
# [13] = molecular target: Neu5Ac(a2-6)Gal(b1-4)GlcNAc(b1-3)Gal(b1-4)GlcNAc(b1-2)Man(a1-3)[Neu5Ac(a2-6)Gal(b1-4)GlcNAc(b1-3)Gal(b1-4)GlcNAc(b1-2)Man(a1-6)]GalNAc
# Summary of the method: as §1
# [14] = molecular target: Neu5Ac(a2-6)Gal(b1-4)GlcNAc(b1-3)Gal(b1-4)GlcNAc(b1-3)Gal(b1-4)GlcNAc
# Summary of the method: as §1
# [15] = molecular target: Neu5Ac(a2-6)Gal(b1-4)GlcNAc(b1-3)Gal(b1-4)GlcNAc(b1-3)Gal(b1-4)GlcNAc(b1-2)Man(a1-3)[Neu5Ac(a2-6)Gal(b1-4)GlcNAc(b1-3)Gal(b1-4)GlcNAc(b1-3)Gal(b1-4)GlcNAc(b1-2)Man(a1-6)]GalNAc
# Summary of the method: as §1
# [16] = molecular target: Neu5Ac(a2-6)Gal(b1-4)GlcNAc(b1-3)Gal(b1-4)GlcNAc(b1-3)GalNAc
# Summary of the method: as §1
# [17] = molecular target: Neu5Ac(a2-6)Gal(b1-4)GlcNAc(b1-3)Gal(b1-4)GlcNAc(b1-3)[Neu5Ac(a2-6)Gal(b1-4)GlcNAc(b1-3)Gal(b1-4)GlcNAc(b1-6)]GalNAc
# Summary of the method: as §1
# [18] = molecular target: Neu5Ac(a2-6)Gal(b1-4)GlcNAc(b1-3)Gal(b1-4)GlcNAc(b1-6)[Gal(b1-3)]GalNAc
# Summary of the method: as §1
# [19] = molecular target: Neu5Ac(a2-6)Gal(b1-4)GlcNAc(b1-3)Gal(b1-4)[Fuc(a1-3)]GlcNAc(b1-3)Gal(b1-4)[Fuc(a1-3)]GlcNAc
# Summary of the method: as §1
# [20] = molecular target: Neu5Ac(a2-6)Gal(b1-4)GlcNAc(b1-3)GalNAc
# Summary of the method: as §1
# [21] = molecular target: Neu5Ac(a2-6)Gal(b1-4)GlcNAc(b1-3)[Neu5Ac(a2-6)Gal(b1-4)GlcNAc(b1-6)]GalNAc
# Summary of the method: as §1
# [22] = molecular target: Neu5Ac(a2-6)Gal(b1-4)GlcNAc(b1-6)GalNAc
# Summary of the method: as §1
# [23] = molecular target: Neu5Ac(a2-6)Gal(b1-4)GlcNAc(b1-6)[Gal(b1-3)GlcNAc(b1-3)]Gal(b1-4)Glc
# Summary of the method: as §1
# [24] = molecular target: Neu5Ac(a2-6)Gal(b1-4)GlcNAc(b1-6)[Gal(b1-3)]GalNAc
# Summary of the method: as §1
# [25] = molecular target: Neu5Ac(a2-6)Gal(b1-4)GlcNAc6S
# Summary of the method: as §1
# Neu5Ac(a2-6)GalNAc = molecular target: Neu5Ac(a2-6)GalNAc
# Summary of the method: as §1
# [26] = molecular target: Neu5Ac(a2-6)GalNAc(b1-4)GlcNAc
# Summary of the method: as §1
# [27] = molecular target: Neu5Ac(a2-6)GalNAc(b1-4)GlcNAc6S
# Summary of the method: as §1
# [28] = molecular target: Neu5Ac(a2-6)GlcNAc(b1-4)GlcNAc
# Summary of the method: as §1
# [29] = molecular target: Neu5Ac(a2-6)GlcNAc(b1-4)GlcNAc(b1-4)GlcNAc
# Summary of the method: as §1
binder,measurement,setting,value
B1,glycan array binding signal (z-score),[1],-1.12
same,glycan array binding signal (z-score),[2],-0.192
same,glycan array binding signal (z-score),[3],0.384
same,glycan array binding signal (z-score),[4],-0.665
same,glycan array binding signal (z-score),[5],1.72
same,glycan array binding signal (z-score),[6],-1.23
same,glycan array binding signal (z-score),[7],-0.088
same,glycan array binding signal (z-score),[8],0.326
same,glycan array binding signal (z-score),[9],-0.75
same,glycan array binding signal (z-score),[10],-1.1
same,glycan array binding signal (z-score),[11],-0.322
same,glycan array binding signal (z-score),[12],0.787
same,glycan array binding signal (z-score),[13],0.293
same,glycan array binding signal (z-score),[14],-1.54
same,glycan array binding signal (z-score),[15],2.42
same,glycan array binding signal (z-score),[16],-0.464
same,glycan array binding signal (z-score),[17],-0.209
same,glycan array binding signal (z-score),[18],-0.223
same,glycan array binding signal (z-score),[19],0.333
same,glycan array binding signal (z-score),[20],-0.312
same,glycan array binding signal (z-score),[21],-0.931
same,glycan array binding signal (z-score),[22],-1.03
same,glycan array binding signal (z-score),[23],-1.71
same,glycan array binding signal (z-score),[24],-0.68
same,glycan array binding signal (z-score),[25],-0.103
same,glycan array binding signal (z-score),Neu5Ac(a2-6)GalNAc,-1.22
same,glycan array binding signal (z-score),[26],-0.937
same,glycan array binding signal (z-score),[27],0.811
same,glycan array binding signal (z-score),[28],-0.658
same,glycan array binding signal (z-score),[29],-0.4

# Retrieved one by one from the list above:
binder,measurement,setting,value
B1,glycan array binding signal (z-score),[15],2.42
same,glycan array binding signal (z-score),[21],-0.931
